We go through 44 compounds from PubChem BioAssay AID662 (National Center for Advancing Translational Sciences (NCATS), 2007).

Some of the results follow. Shown are side measurements of this screen, not its main read-out; they come without a call. Compounds called inactive in the main read-out are mostly missing here. Potencies come from curve fits of mixed quality, noted in brackets.

By AC50 is commonly meant the concentration giving half of the maximal activity seen.

This experiment can be described thus: Cell signaling CRE-BLA (Fsk stim). Conditions: CHO CRE-bla reporter (cAMP response element driving beta-lactamase), forskolin EC10, beta-lactamase ratio; measured here: 460 nm blue channel. Put shortly: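 Titrated compounds plus EC10 NKH 477 on CHO CRE-bla cells, 3 h, 37 °C. CCF4, 2 h RT. Ratio 460/530 nm → AC50.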
In the case of `COc1cccc2c(C)c(C(=O)O)[nH]c12`, the AC50 is 0.00398 µM [falling, full curve, poor fit]. Turning to `Cc1cc(C)c2nc(-c3ccccn3)cc(C(=O)NCc3ccco3)c2c1`, the AC50 is 10 µM [falling, single point]. As for `CCNc1nc(SC(C)C(=O)Nc2ccccc2)nc(N2CCOCC2)n1` (centres undefined), the AC50 was 12.6 µM [rising, partial curve]. `CCn1c(SCC(=O)Nc2ccc(NC(=O)c3ccco3)c(OC)c2)nc2ccccc2c1=O`: the AC50 was 1 µM [rising, partial curve]. In the case of `CCCn1c(C)nc2c(N3CCOCC3)nc(C)nc21` it was 12.6 µM [rising, partial curve]; in that of `COc1cc(-c2nc(S(=O)(=O)c3ccc(Cl)cc3)c(N3CCOCC3)o2)cc(OC)c1OC`, 1 µM [rising, partial curve]. `CSc1nc2ccc(Nc3nc(N4CCOCC4)nc(N4CCOCC4)n3)cc2s1`: the AC50 was 3.16 µM [rising, partial curve]. Regarding `N#Cc1nc(-c2ccc(OCc3ccccc3)cc2)oc1NCCN1CCOCC1`, the AC50 was 5.01 µM [rising, partial curve]. Regarding `COc1ccc(CNc2oc(-c3cccc4ccccc34)nc2C#N)cc1`, the AC50 is 10 µM [rising, partial curve].

On to `CCn1c(COc2ccc(Cl)cc2)nnc1SCc1ccc(C#N)cc1`, for which the AC50 is 12.6 µM [falling, single point]. `CCC(=O)Nc1nc2ccc3nc(C)sc3c2s1`: the AC50 is 6.31 µM [rising, partial curve]. In the case of `N=c1n(Cc2ccccc2)c2ccccc2n1CC(O)c1ccco1` (centres undefined) it was 7.94 µM [falling, partial curve]; in that of `Cc1cc(C)nc(Nc2ccccc2Br)n1`, 5.01 µM [falling, single point]. With `O=C(Nc1ccccc1N1CCCCC1)c1ccc2nccnc2c1`, the AC50 was 10 µM [rising, partial curve]. For `C=CCn1c(SCC(=O)NC2CCCC2)nc2scc(-c3ccco3)c2c1=O`, the AC50 is 12.6 µM [falling, single point]. To `Cc1ncoc1C(=O)NCc1ccccc1Cl` belongs 3.16 µM [falling, single point].

In the case of `CCOc1ccccc1-n1c(SCC(N)=O)nc2ccccc2c1=O`, the AC50 was 0.126 µM [falling, single point]. In the case of `COC(=O)c1ccc(NC(=O)CSc2nnc(CNc3ccc(F)cc3)n2C)cc1` it was 25.1 µM [falling, single point]; in that of `Cn1c(=O)c2c(nc(NCCCO)n2C/C=C/c2ccccc2)n(C)c1=O`, 20 µM [rising, single point]; in that of `Cc1nc(S(=O)(=O)N(C)c2ccccc2)c(C#N)c(C)c1Cl`, 1 µM [falling, partial curve].

As to `CCOc1cc(N2CCOCC2)c(OCC)cc1NS(=O)(=O)c1ccc(Cl)s1`, the AC50 is 3.16 µM [rising, partial curve]. For `COc1ccc(NC(=O)c2ccco2)cc1NC(=O)c1ccc(Br)o1`, the AC50 is 12.6 µM [rising, partial curve].

As for `FC(F)(F)c1cccc(N2Cc3ccccc3C2)c1`, the AC50 was 25.1 µM [rising, single point]. `C=CCN1CC(c2nc3ccccc3n2CCOc2ccccc2)CC1=O` (centres undefined): the AC50 is 20 µM [rising, single point]. On to `CCCNc1nc2c(c(=O)n(C)c(=O)n2C)n1CCC(C)C`, for which the AC50 is 12.6 µM [rising, single point]. To `Cc1ccc(NC(=O)CSc2nc3nc(C)cc(C)c3c(=O)[nH]2)cc1` belongs 3.16 µM [rising, full curve]. With `COc1ccc(-c2nnc(-c3ccc(Br)o3)o2)cc1OC`, the AC50 was 25.1 µM [rising, single point].

`CCOC(=O)NC(=O)CSc1nc2ccc(OCC)cc2[nH]1`: the AC50 is 0.126 µM [falling, single point].

For the compound `CCOc1cc(C2c3c(oc4cc(C)c(Cl)cc4c3=O)C(=O)N2Cc2ccco2)ccc1O` (centres undefined), the AC50 is 25.1 µM [rising, partial curve]. On to `COc1ccc(-c2cc(-c3c(O)c(OC)c4occc4c3OC)[nH]n2)cc1OC`, for which the AC50 is 10 µM [rising, partial curve]. Regarding `CC(=O)c1ccc(N2CCN(C(=O)c3cc4c(=O)n(C)c5ccccc5c4n3C)CC2)cc1`, the AC50 was 7.94 µM [rising, partial curve].

Consider `CCCc1nc(S(=O)(=O)Cc2ccc(Cl)cc2Cl)n[nH]1`, for which the AC50 is 1.26 µM [falling, full curve, poor fit].

For `C#C[C@]1(O)CC[C@@H]2[C@H]3CCc4cc(OC)ccc4[C@@H]3CC[C@@]21C`, the AC50 is 3.16 µM [rising, partial curve, poor fit].

As to `Cc1nc2cnc(Oc3ccccc3)nc2n(-c2ccccc2)c1=O`, the AC50 was 25.1 µM [rising, partial curve]. Turning to `COc1cc(-c2nnc(SCC(=O)c3ccccc3)o2)cc(OC)c1OC`, the AC50 was 7.94 µM [rising, partial curve]. As for `O=C(CSc1nnc(-c2ccco2)o1)NC1CCCCC1`, the concentration at half-maximal activity (AC50) was 0.00316 µM [falling, full curve]. On to `CN(C)c1ncc2nc(-c3cccs3)c(=O)n(C3CC3)c2n1`, for which the half-maximal activity concentration (AC50) is 3.98 µM [rising, full curve].

In the case of `Cn1c(=O)c2c(nc(Br)n2C)n(C)c1=O`, the concentration at half-maximal activity (AC50) was 0.631 µM [rising, full curve, poor fit]. In the case of `C=CCn1c(=O)n(CCOC)c(=O)c2sc3ccccc3c21` it was 2.51 µM [rising, full curve]; in that of `CCOC(=O)C(C(C)=O)c1c(Br)c(O)c(O)c2c(C(=O)c3ccc(C)cc3)coc12` (centres undefined), 15.8 µM [falling, partial curve]; in that of `COC(=O)CNC(=O)c1ccc2c(c1)S(=O)(=O)c1ccccc1C2=O`, 2.51 µM [rising, partial curve].

`ON1C(c2ccccc2C(F)(F)F)N(O)[C@H]2CCCC[C@H]21` (some centres undefined): the AC50 was 0.398 µM [falling, full curve, poor fit].

On to `COc1ccc2c(c1)C(=O)N(c1ccccc1OC)C(=O)C2(C)C`, for which the AC50 is 5.01 µM [rising, full curve].

Turning to `CCn1cc(C(=O)N2CCN(C3CCCCC3)CC2)c2cc(OC)c(OC)cc2c1=O`, the AC50 was 12.6 µM [rising, partial curve].
